# Assay results published in the supplement of paper PMC8728848.
# The other results are listed elsewhere or left out.
# What was measured:
# Test in all cases: glycan array binding signal (z-score within array); higher = stronger binding
# Conditions in all cases: glycan notation: IUPAC condensed, linker removed
# [1] = target: Neu5Ac(a2-3)Gal(b1-3)[Fuc(a1-4)]GlcNAc(b1-3)Gal(b1-3)[Fuc(a1-4)]GlcNAc
# Summary of the method: (§1)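 Glycan array data were curated from 3228 arrays in the Consortium for Functional Glycomics database and kept only where the protein sequence was available. Glycan names were converted to IUPAC-condensed notation, and columns mapping to the same glycan were averaged. The binding signal is a within-array Z-score, averaged across arrays of the same protein sequence at different concentrations or buffers and across linkers. Negative Z-scores can be read as non-binding.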
# [2] = target: Neu5Ac(a2-3)Gal(b1-3)[Fuc(a1-4)]GlcNAc(b1-3)Gal(b1-4)[Fuc(a1-3)]GlcNAc
# Summary of the method: as §1
# [3] = target: Neu5Ac(a2-3)Gal(b1-3)[Neu5Ac(a2-3)Gal(b1-4)]GlcNAc
# Summary of the method: as §1
# [4] = target: Neu5Ac(a2-3)Gal(b1-3)[Neu5Ac(a2-6)]GalNAc
# Summary of the method: as §1
# Neu5Ac(a2-3)Gal(b1-4)Glc = target: Neu5Ac(a2-3)Gal(b1-4)Glc
# Summary of the method: as §1
# [5] = target: Neu5Ac(a2-3)Gal(b1-4)GlcNAc
# Summary of the method: as §1
# [6] = target: Neu5Ac(a2-3)Gal(b1-4)GlcNAc(b1-2)Man(a1-3)[GlcNAc(b1-2)Man(b1-4)GlcNAc(b1-2)Man(a1-6)]Man(b1-4)GlcNAc(b1-4)GlcNAc
# Summary of the method: as §1
# [7] = target: Neu5Ac(a2-3)Gal(b1-4)GlcNAc(b1-2)Man(a1-3)[Neu5Ac(a2-6)Gal(b1-4)GlcNAc(b1-2)Man(a1-6)]Man(b1-4)GlcNAc(b1-4)GlcNAc
# Summary of the method: as §1
# [8] = target: Neu5Ac(a2-3)Gal(b1-4)GlcNAc(b1-3)Gal
# Summary of the method: as §1
# [9] = target: Neu5Ac(a2-3)Gal(b1-4)GlcNAc(b1-3)Gal(b1-3)GlcNAc
# Summary of the method: as §1
# [10] = target: Neu5Ac(a2-3)Gal(b1-4)GlcNAc(b1-3)Gal(b1-4)GlcNAc
# Summary of the method: as §1
# [11] = target: Neu5Ac(a2-3)Gal(b1-4)GlcNAc(b1-3)Gal(b1-4)GlcNAc(b1-3)Gal(b1-4)GlcNAc
# Summary of the method: as §1
# [12] = target: Neu5Ac(a2-3)Gal(b1-4)GlcNAc(b1-3)Gal(b1-4)[Fuc(a1-3)]GlcNAc
# Summary of the method: as §1
# [13] = target: Neu5Ac(a2-3)Gal(b1-4)GlcNAc(b1-3)GalNAc
# Summary of the method: as §1
# [14] = target: Neu5Ac(a2-3)Gal(b1-4)GlcNAc(b1-6)[Gal(b1-3)]GalNAc
# Summary of the method: as §1
# [15] = target: Neu5Ac(a2-3)Gal(b1-4)GlcNAc(b1-6)[Neu5Ac(a2-3)Gal(b1-3)]GalNAc
# Summary of the method: as §1
# [16] = target: Neu5Ac(a2-3)Gal(b1-4)GlcNAc6S
# Summary of the method: as §1
# [17] = target: Neu5Ac(a2-3)Gal(b1-4)[Fuc(a1-3)]GlcNAc
# Summary of the method: as §1
# [18] = target: Neu5Ac(a2-3)Gal(b1-4)[Fuc(a1-3)]GlcNAc(b1-3)Gal
# Summary of the method: as §1
# [19] = target: Neu5Ac(a2-3)Gal(b1-4)[Fuc(a1-3)]GlcNAc(b1-3)Gal(b1-4)GlcNAc
# Summary of the method: as §1
# [20] = target: Neu5Ac(a2-3)Gal(b1-4)[Fuc(a1-3)]GlcNAc(b1-3)Gal(b1-4)[Fuc(a1-3)]GlcNAc(b1-3)Gal(b1-4)[Fuc(a1-3)]GlcNAc
# Summary of the method: as §1
# [21] = target: Neu5Ac(a2-3)Gal(b1-4)[Fuc(a1-3)]GlcNAc(b1-3)GalNAc
# Summary of the method: as §1
# [22] = target: Neu5Ac(a2-3)Gal(b1-4)[Fuc(a1-3)]GlcNAc(b1-6)[Gal(b1-3)]GalNAc
# Summary of the method: as §1
# [23] = target: Neu5Ac(a2-3)Gal(b1-4)[Fuc(a1-3)]GlcNAc6S
# Summary of the method: as §1
# [24] = target: Neu5Ac(a2-3)Gal6S(b1-4)GlcNAc
# Summary of the method: as §1
# [25] = target: Neu5Ac(a2-3)Gal6S(b1-4)[Fuc(a1-3)]GlcNAc
# Summary of the method: as §1
# Neu5Ac(a2-3)GalNAc = target: Neu5Ac(a2-3)GalNAc
# Summary of the method: as §1
# [26] = target: Neu5Ac(a2-3)GalNAc(b1-4)GlcNAc
# Summary of the method: as §1
# [27] = target: Neu5Ac(a2-3)[GalNAc(b1-4)]Gal(b1-4)Glc
# Summary of the method: as §1
# [28] = target: Neu5Ac(a2-3)[GalNAc(b1-4)]Gal(b1-4)GlcNAc
# Summary of the method: as §1
# [29] = target: Neu5Ac(a2-3)[GalNAc(b1-4)]Gal(b1-4)GlcNAc(b1-3)GalNAc
# Summary of the method: as §1
# [30] = target: Neu5Ac(a2-3)[Neu5Ac(a2-6)]GalNAc
# Summary of the method: as §1
# Neu5Ac(a2-6)Gal = target: Neu5Ac(a2-6)Gal
# Summary of the method: as §1
# [31] = target: Neu5Ac(a2-6)Gal(b1-3)GlcNAc(b1-3)[Gal(b1-4)GlcNAc(b1-6)]Gal(b1-4)Glc
# Summary of the method: as §1
# Neu5Ac(a2-6)Gal(b1-4)Glc = target: Neu5Ac(a2-6)Gal(b1-4)Glc
# Summary of the method: as §1
# [32] = target: Neu5Ac(a2-6)Gal(b1-4)GlcNAc
# Summary of the method: as §1
# [33] = target: Neu5Ac(a2-6)Gal(b1-4)GlcNAc(b1-2)Man(a1-3)Man(b1-4)GlcNAc(b1-4)GlcNAc
# Summary of the method: as §1
# [34] = target: Neu5Ac(a2-6)Gal(b1-4)GlcNAc(b1-2)Man(a1-3)[Gal(b1-4)GlcNAc(b1-2)Man(a1-6)]Man(b1-4)GlcNAc(b1-4)GlcNAc
# Summary of the method: as §1
binder,measurement,setting,value
"Intelectin 1 (Homo sapiens), Q8WWA0 (protein) MNQLSFLLFLIATTRGWSTDEANTYFKEWTCSSSPSLPRSCKEIKDECPSAFDGLYFLRTENGVIYQTFCDMTSGGGGWTLVASVHENDMRGKCTVGDRWSSQQGSKAVYPEGDGNWANYNTFGSAEAATSDDYKNPGYYDIQAKDLGIWHVPNKSPMQHWRNSSLLRYRTDTGFLQTLGHNLFGIYQKYPVKYGEGKCWTDNGPVIPVVYDFGDAQKTASYYSPYGQREFTAGFVQFRVFNNERAANALCAGMRVTGCNTEHHCIGGGGYFPEASPQQCGDFSGFDWSGYGTHVGYSSSREITEAAVLLFYR",glycan array binding signal (z-score),[1],-0.641
same,glycan array binding signal (z-score),[2],-0.779
same,glycan array binding signal (z-score),[3],-0.157
same,glycan array binding signal (z-score),[4],-0.094
same,glycan array binding signal (z-score),Neu5Ac(a2-3)Gal(b1-4)Glc,-0.534
same,glycan array binding signal (z-score),[5],0.239
same,glycan array binding signal (z-score),[6],-0.161
same,glycan array binding signal (z-score),[7],0.053
same,glycan array binding signal (z-score),[8],-0.508
same,glycan array binding signal (z-score),[9],-0.324
same,glycan array binding signal (z-score),[10],-0.554
same,glycan array binding signal (z-score),[11],-0.177
same,glycan array binding signal (z-score),[12],0.691
same,glycan array binding signal (z-score),[13],-0.216
same,glycan array binding signal (z-score),[14],0.281
same,glycan array binding signal (z-score),[15],-0.416
same,glycan array binding signal (z-score),[16],0.039
same,glycan array binding signal (z-score),[17],-1.07
same,glycan array binding signal (z-score),[18],-0.21
same,glycan array binding signal (z-score),[19],1.27
same,glycan array binding signal (z-score),[20],-0.349
same,glycan array binding signal (z-score),[21],0.108
same,glycan array binding signal (z-score),[22],1.07
same,glycan array binding signal (z-score),[23],-0.05
same,glycan array binding signal (z-score),[24],-0.326
same,glycan array binding signal (z-score),[25],-0.264
same,glycan array binding signal (z-score),Neu5Ac(a2-3)GalNAc,-0.268
same,glycan array binding signal (z-score),[26],0.042
same,glycan array binding signal (z-score),[27],0
same,glycan array binding signal (z-score),[28],-0.14
same,glycan array binding signal (z-score),[29],-0.316
same,glycan array binding signal (z-score),[30],-0.046
same,glycan array binding signal (z-score),Neu5Ac(a2-6)Gal,-0.004
same,glycan array binding signal (z-score),[31],-0.516
same,glycan array binding signal (z-score),Neu5Ac(a2-6)Gal(b1-4)Glc,-0.257
same,glycan array binding signal (z-score),[32],0.519
same,glycan array binding signal (z-score),[33],-0.275
same,glycan array binding signal (z-score),[34],0.365
